# Reference: PubChem BioAssay AID1671190 (National Center for Advancing Translational Sciences (NCATS), 2021)
# By UniProt entry, the sequences of proteins in these tests, tags left out.
# UniProt P18054, whole entry, looked up: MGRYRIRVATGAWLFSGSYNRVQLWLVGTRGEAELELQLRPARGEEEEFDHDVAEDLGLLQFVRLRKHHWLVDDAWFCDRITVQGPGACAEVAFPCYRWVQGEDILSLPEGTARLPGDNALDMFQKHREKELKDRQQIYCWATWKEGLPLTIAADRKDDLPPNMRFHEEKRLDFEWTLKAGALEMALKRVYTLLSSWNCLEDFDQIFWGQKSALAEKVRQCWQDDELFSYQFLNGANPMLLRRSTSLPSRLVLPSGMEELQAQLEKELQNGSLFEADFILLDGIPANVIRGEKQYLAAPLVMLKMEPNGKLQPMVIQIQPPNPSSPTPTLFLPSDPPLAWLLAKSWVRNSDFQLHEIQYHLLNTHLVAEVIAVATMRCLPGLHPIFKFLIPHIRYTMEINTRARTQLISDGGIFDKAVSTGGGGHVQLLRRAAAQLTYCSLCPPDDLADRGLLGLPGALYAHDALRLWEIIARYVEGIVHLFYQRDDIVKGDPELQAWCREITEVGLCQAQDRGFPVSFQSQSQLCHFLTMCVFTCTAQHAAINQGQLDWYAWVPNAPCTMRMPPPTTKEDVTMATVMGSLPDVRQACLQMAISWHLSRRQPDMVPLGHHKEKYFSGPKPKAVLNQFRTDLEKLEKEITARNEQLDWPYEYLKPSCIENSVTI
# About 6,100 (1.1%) of roughly 580,000 compounds were called active. The inconclusive results got no clear call from the source; some entries with a clear call stand among them for comparison. Calls come from the whole dose curve; as a rule, active = well fitted inhibition curve with a large enough effect; inconclusive = small, poorly fitted or top-dose-only effect, or another doubt; inactive = no such curve, though single readings can be large or run the other way. Potencies beside an inconclusive call are fits to weak or partial responses and may not hold up.
# Biological target: Polyunsaturated fatty acid lipoxygenase ALOX12 (Homo sapiens) (UniProt P18054)
# Assay: Primary qHTS assay for inhibitors of human arachidonate 12S-lipoxygenase (ALOX12): Round 2
# Conditions: purified 12hLO, xylenol orange hydroperoxide absorbance; series mostly up to 108 µM
# Method in brief: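 Hydroperoxide product was detected by ferrous iron/xylenol orange as the 573 to 405 nm absorbance ratio. Arachidonic acid at 40 uM (final) was turned over for 30 min at room temperature by 150 nM human 12hLO, pH 7.0 Hepes buffer, after 15 min compound preincubation.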
# Potency is the fitted concentration of half-maximal effect.
row,Structure (SMILES),Potency
1,O=C1CC(c2ccc(O)cc2)Oc2cc(O)cc(O)c21 (stereo not drawn),"inconclusive: 44.7 µM [inhibitor, partial curve, poor fit]"
2,CC1(C(=O)NS(=O)(=O)c2cccc(Cl)c2)CCN1C(=O)C1(c2ccc(Cl)cc2)CCC1 (stereo not drawn),"inconclusive: 70.8 µM [inhibitor, partial curve, poor fit]"
3,O=C(C1=C[C@H](c2csc3ccccc23)C[C@H](OCc2ccc(CO)cc2)O1)N1CCCCCCC1,inactive
4,Cc1nn(-c2ccc(F)cc2)c(Oc2ccccc2)c1CCC(=O)NCC1CCCO1 (stereo not drawn),inactive
5,CNC(=O)[C@@H]1CN(S(=O)(=O)c2cn(C)cn2)C[C@H]1COC,inactive
6,CC1Cc2nc(SCC(N)=O)n(Cc3ccccc3)c(=O)c2S1 (stereo not drawn),"inconclusive: 100 µM [inhibitor, single point]"
7,CCc1ccc(C(C)NC(=O)Cn2cnc(C#N)n2)cc1 (stereo not drawn),inactive
8,CCNc1ncc2nc(-c3ccc(OC)cc3)c(=O)n(CCc3ccccc3)c2n1,inactive
9,FC(F)(F)c1ccc2c(c1)N1CCCC1CN2 (stereo not drawn),inactive
10,COc1cc(/C=N/NC(=O)c2cc(-c3ccco3)nc3ccccc23)cc(OC)c1O,"inconclusive: 44.7 µM [inhibitor, partial curve, poor fit]"
11,O=C(c1cc(C2=NNC(=Nc3ccc(Cl)cc3)SC2)c[nH]1)N1CCCC1,"inconclusive: 39.8 µM [inhibitor, partial curve]"
12,O=C(CSc1nnc(N2CCOCC2)n1-c1cccc(F)c1)Nc1ccc(SC(F)F)cc1,"inconclusive: 28.2 µM [inhibitor, partial curve, poor fit]"
13,CCc1cc2ccc(OC)cc2nc1SCC(=O)N1CCN(C(=O)c2ccco2)CC1,inactive
14,Brc1cccc(OCCCCN2CCCCC2)c1,"inconclusive: 0.126 µM [inhibitor, full curve, poor fit]"
15,CN(C)c1cccc(CNC(=O)c2csc([C@@H]3O[C@H](CO)[C@H](O)[C@H](O)[C@H]3O)n2)c1,"inconclusive: 2.82 µM [inhibitor, full curve, poor fit]"
16,O=C(Cc1nnc(NC(=O)c2ccccc2)s1)N/N=C\c1ccc(O)c(O)c1,"inconclusive: 44.7 µM [inhibitor, single point]"
17,CC1(C(=O)NS(=O)(=O)c2cccc(OC(F)F)c2)CCN1C(=O)C1CCCCC1 (stereo not drawn),"inconclusive: 39.8 µM [inhibitor, partial curve, poor fit]"
18,Cc1ccc(Nc2ncnc(-n3cccc3)n2)cc1Cl,inactive
19,C=CCn1c(CSCc2ccc(F)cc2)n[nH]c1=S,"inconclusive: 63.1 µM [inhibitor, partial curve, poor fit]"
20,N#Cc1nc(-c2ccc(S(=O)(=O)N3CCCC3)cc2)oc1NCCc1ccccc1,inactive
21,Cc1ccsc1CCN1C(=O)N(c2ccccc2)C(=O)C1CC(=O)Nc1ccc(Cl)cc1 (stereo not drawn),"inconclusive: 50.1 µM [inhibitor, partial curve, poor fit]"
22,COCOCCn1cc(CN2CCS(=O)(=O)N(Cc3ccc(-c4ccc(Cl)nc4)cc3)C(C(C)C)C2=O)nn1 (stereo not drawn),"inconclusive: 126 µM [inhibitor, single point]"

# Reformatted: entries from further up.
row | Structure (SMILES) | Potency
20 | N#Cc1nc(-c2ccc(S(=O)(=O)N3CCCC3)cc2)oc1NCCc1ccccc1 | inactive
21 | Cc1ccsc1CCN1C(=O)N(c2ccccc2)C(=O)C1CC(=O)Nc1ccc(Cl)cc1 (stereo not drawn) | inconclusive: 50.1 µM [inhibitor, partial curve, poor fit]
22 | COCOCCn1cc(CN2CCS(=O)(=O)N(Cc3ccc(-c4ccc(Cl)nc4)cc3)C(C(C)C)C2=O)nn1 (stereo not drawn) | inconclusive: 126 µM [inhibitor, single point]

# (list continues)

row,Structure (SMILES),Potency
1,COc1nc(=O)n(C2OC(CO)C(O)C2O)cc1C (stereo not drawn),inactive
2,CCN(CC)C(=O)c1sc2c(c1C)c(=O)n(-c1ccc(C)c(C)c1)c(=O)n2Cc1cc(=O)n2ccccc2n1,"inconclusive: 112 µM [inhibitor, partial curve, poor fit]"
3,COc1ccc(S(=O)(=O)N2CCCCC2)cc1NC(=O)CCc1nc2ccccc2c(=O)[nH]1,inactive
4,COc1cc(CCCN2C(N)=NC[C@@H]2Cc2ccc(O)cc2)cc(OC)c1OC,"inconclusive: 4.47 µM [inhibitor, full curve, poor fit]"
5,COc1ccc(/C=C\c2nc(O)c([N+](=O)[O-])c(=O)[nH]2)cc1O,"inconclusive: 35.5 µM [inhibitor, partial curve]"
6,Fc1cccc(NC(=S)Nc2cccc3ccccc23)c1,"inconclusive: 44.7 µM [inhibitor, partial curve]"
7,Cc1ccccc1CN1CCC(N(C)Cc2ccccc2)CC1,active: 0.562 µM
8,COc1ccc(S(=O)(=O)N(Cc2cc3ccccc3[nH]c2=O)C(C)C)cc1,"inconclusive: 112 µM [inhibitor, single point]"
9,O=C(Nc1cc(C(F)(F)F)ccc1Cl)C(Sc1cccc[n+]1[O-])c1ccccc1 (stereo not drawn),inactive
10,CC(=O)c1cccc(NC(=O)CNC(=O)Cc2cccc3ccccc23)c1,"inconclusive: 112 µM [inhibitor, single point]"
11,CC1CC(C)(C)CC2(C1)NC(=O)N(CC(=O)N1CCN(S(=O)(=O)c3cccs3)CC1)C2=O (stereo not drawn),inactive
12,CN(C(=O)c1ccc(Cl)cc1)C1CCS(=O)(=O)C1 (stereo not drawn),"inconclusive: 112 µM [inhibitor, single point]"
13,O=[N+]([O-])c1ccc(S(=O)(=O)NN=Cc2ccc(Cl)c(Cl)c2)cc1,active: 17.8 µM
14,Cc1ccc(C)c(-c2cc(C(=O)O)c3cccc(C)c3n2)c1,"inconclusive: 31.6 µM [inhibitor, partial curve]"
15,COc1ccc(N2CCN(C(=O)CSc3nc(-c4ccc(C(C)C)cc4)no3)CC2)cc1,"inconclusive: 141 µM [inhibitor, single point]"
16,Cc1ccc2sc(N(Cc3cccnc3)C(=O)CCS(=O)(=O)c3ccccc3)nc2c1C,"inconclusive: 56.2 µM [inhibitor, partial curve, poor fit]"
17,COc1ccccc1N/N=C/c1ccc2c(c1)OCO2,"inconclusive: 0.224 µM [inhibitor, full curve, poor fit]"
18,COC(=O)C1C(=O)C2=C(CC1C)NC(C)=C(C(=O)OCCOc1ccccc1)C2c1ccc(C)o1 (stereo not drawn),inactive
19,CCOc1cccc(C2C(C(=O)c3ccc(C)o3)=C(O)C(=O)N2Cc2ccccc2)c1 (stereo not drawn),"inconclusive: 4.47 µM [inhibitor, single point]"
20,CC(Cc1cccs1)NC(=S)Nc1ccc(F)cc1 (stereo not drawn),inactive
21,CCCN1CCC(=O)N([C@H](CSc2ccc(Br)cc2)c2ccccc2)CC1,"inconclusive: 35.5 µM [inhibitor, partial curve, poor fit]"
